Experimental data: article PMC11212424
These are yes or no findings as the source states them, for the method shown. Binding seen in cells or lysates may run through a third protein. Binding calls can cover weak binding; strength is not graded here.

Molecular target: GST-WW (WW domain of YAP)
Experiment: pull-down; GST fusion proteins from E. coli held on glutathione-agarose beads, incubated 12 h with in vitro transcribed/translated product (rabbit reticulocyte lysate); western blot; only the target purified

B1: in vitro-translated Tudor-SN (protein, UniProt Q66X93 1-909)
chain: MASAQSSGSSGGPAVPTVQRGIVKMVLSGCAIIVRGQPRGGPPPERQINLSNIRAGNLARRAAATQPDGKDTPDEPWAFPAREFLRKKLIGKEVCFTIENKTPQGREYGMIYLGKDTNGENIAESLVAEGLASRREGMRANNPEQNRLSECEEQAKASKKGMWSEGNGSHTIRDLKYTIENPRHFVDSHHQKPVNAIIEHVRDGSVVRALLLPDHYLVTVMLSGIKCPTFRRETDGSETPEPFAAEAKFFTESRLLQRDVQIILESCHNQNILGTILHPNGNITELLLKEGFARCVDWSIAVYTRGAEKLRAAERFAKERRLRIWRDYVPPTANLDQKDKQFVAKVMQVLNADAIVVKLNSGDYKTIHLSSIRPPRLEGDNIQDKNKKLRPLYDIPYMFEAREFLRKKLIGKKVSVTVDYIRPASPATETVPAFSERTCATVTIGGINIAEALVSKGLATVIRYRQDDDQRSSHYDELLAAEARAIKNGKGLHSKKEVPIHRVADISGDTQKAKQFLPFLQRAGRSEAVVEYVFSGSRLKLYLPKETCLITFLLAGIECPRGARNLPGLVQEGEPFSEEATLFTKELVLQREVEVEVESMDKAGNFIGWLHMDGANLSVLLVEHALSKVHFTAERSAYYKPLLSAEEAAKQRKEKVWAHYEEQPVEEVMPVLEEKERSASYKPVFVTEITDDLHFYVQDVETGTQLEKLMENMRSDISSHPPVEGAYAPRRGEFCIAKFVDGEWYRARVEKVESPAKVHVFYIDYGNREILPSTRLGALPPAFSTRVLPAQATEYAFAFIQVPQDEDARTDAVDSVVRDIQNTQCLLNVEHLSASCPHVTLQFADSKGDVGLGLVKEGLVMVEVRKEKQFQKVITEYLNAQESAKSARLNLWRYGDFRADDADEFGYSR
binding: binds
